Results are given in words; binding and its absence hold for the method and conditions named. Some results given as binding are weak or reduced against the parent protein; the word gives no strength.
Molecular target: extradomain-B fibronectin (EDB-FN) produced by TGFbeta-induced 4T1 cells (UniProt P11276)
Experiment: fluorescence staining of TGFbeta induced 4T1 cells in culture

Amino acid sequences for entries named in this document (tags omitted). Residues count along the entry.
UniProt P11276, residues 33-2477: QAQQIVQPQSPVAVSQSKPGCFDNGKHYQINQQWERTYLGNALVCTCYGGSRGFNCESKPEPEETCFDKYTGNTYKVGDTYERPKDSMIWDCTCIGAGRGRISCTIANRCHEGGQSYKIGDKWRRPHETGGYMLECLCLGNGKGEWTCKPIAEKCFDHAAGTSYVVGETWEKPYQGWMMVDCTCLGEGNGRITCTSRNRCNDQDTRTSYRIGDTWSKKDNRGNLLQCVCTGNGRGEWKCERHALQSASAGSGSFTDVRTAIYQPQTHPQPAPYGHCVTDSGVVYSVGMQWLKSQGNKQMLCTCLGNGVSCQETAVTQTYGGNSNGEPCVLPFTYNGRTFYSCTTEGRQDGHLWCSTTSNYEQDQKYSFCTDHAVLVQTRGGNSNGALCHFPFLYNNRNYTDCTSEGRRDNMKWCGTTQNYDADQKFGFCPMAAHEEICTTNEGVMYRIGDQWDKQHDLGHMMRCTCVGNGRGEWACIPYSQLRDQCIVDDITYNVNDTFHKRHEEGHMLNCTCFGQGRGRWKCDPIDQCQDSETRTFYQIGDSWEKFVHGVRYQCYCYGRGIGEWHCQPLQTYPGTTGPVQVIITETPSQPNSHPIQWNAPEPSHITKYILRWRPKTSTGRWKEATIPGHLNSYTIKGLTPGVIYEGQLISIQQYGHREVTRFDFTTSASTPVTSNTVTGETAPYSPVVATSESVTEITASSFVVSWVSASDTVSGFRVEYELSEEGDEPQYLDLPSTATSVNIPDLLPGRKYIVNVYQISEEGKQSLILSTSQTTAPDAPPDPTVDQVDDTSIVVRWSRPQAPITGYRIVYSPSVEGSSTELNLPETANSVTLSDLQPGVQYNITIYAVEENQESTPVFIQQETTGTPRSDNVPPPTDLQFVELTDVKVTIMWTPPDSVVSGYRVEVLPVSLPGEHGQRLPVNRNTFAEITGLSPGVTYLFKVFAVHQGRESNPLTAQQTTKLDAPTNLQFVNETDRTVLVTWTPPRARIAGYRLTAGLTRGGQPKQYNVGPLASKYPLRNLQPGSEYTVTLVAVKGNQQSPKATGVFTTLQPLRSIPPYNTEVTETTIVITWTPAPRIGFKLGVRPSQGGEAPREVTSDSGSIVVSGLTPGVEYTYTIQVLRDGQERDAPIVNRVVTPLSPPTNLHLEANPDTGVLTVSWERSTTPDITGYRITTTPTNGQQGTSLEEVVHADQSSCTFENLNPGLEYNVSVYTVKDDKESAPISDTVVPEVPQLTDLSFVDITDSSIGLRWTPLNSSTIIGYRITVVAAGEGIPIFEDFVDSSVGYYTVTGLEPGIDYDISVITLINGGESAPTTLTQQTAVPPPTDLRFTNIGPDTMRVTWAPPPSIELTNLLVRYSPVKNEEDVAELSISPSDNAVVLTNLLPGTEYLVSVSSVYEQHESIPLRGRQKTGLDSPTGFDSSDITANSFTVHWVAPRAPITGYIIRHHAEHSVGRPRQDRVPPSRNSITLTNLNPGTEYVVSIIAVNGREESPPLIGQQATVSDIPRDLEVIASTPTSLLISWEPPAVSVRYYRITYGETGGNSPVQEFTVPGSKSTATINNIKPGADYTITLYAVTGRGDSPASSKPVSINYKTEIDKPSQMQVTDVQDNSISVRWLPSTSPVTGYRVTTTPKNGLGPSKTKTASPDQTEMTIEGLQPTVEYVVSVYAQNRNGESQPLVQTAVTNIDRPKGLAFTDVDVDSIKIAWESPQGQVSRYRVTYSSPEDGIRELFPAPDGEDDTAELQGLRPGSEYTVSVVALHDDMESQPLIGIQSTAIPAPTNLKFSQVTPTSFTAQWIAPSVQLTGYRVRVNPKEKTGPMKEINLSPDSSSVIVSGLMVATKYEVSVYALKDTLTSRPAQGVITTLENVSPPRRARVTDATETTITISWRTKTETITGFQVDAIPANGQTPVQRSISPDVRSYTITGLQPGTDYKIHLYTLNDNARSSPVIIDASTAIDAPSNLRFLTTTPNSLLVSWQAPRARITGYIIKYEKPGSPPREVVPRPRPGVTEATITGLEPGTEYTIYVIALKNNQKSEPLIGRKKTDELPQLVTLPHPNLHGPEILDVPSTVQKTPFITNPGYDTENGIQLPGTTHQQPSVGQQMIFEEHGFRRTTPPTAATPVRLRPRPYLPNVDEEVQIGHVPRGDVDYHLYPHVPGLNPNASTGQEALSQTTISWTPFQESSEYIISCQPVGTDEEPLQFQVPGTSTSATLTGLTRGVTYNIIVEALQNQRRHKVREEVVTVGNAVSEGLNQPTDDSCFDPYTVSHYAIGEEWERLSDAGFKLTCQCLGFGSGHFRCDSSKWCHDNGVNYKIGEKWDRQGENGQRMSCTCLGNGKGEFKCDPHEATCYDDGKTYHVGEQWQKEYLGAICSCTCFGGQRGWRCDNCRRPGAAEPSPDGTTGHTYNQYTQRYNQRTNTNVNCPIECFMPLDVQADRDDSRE

TVRTSAD (Cy5 label; the site and the linker are not described in Example 2) [l-ZD2-Cy5 (Cy5 labeled linear ZD2, TVRTSAD)]
binding: binds
